Data from paper PMC3948737.
These are yes or no findings as the source states them, for the method shown. In cells and extracts the contact can be indirect. Some results given as binding are weak or reduced against the parent protein; the word gives no strength. For some assays here: Tags and fused reporters may be left off the sequences shown.

Sequences of proteins named here, by UniProt entry; tags and fusion partners are left off.
UniProt Q9UBN7: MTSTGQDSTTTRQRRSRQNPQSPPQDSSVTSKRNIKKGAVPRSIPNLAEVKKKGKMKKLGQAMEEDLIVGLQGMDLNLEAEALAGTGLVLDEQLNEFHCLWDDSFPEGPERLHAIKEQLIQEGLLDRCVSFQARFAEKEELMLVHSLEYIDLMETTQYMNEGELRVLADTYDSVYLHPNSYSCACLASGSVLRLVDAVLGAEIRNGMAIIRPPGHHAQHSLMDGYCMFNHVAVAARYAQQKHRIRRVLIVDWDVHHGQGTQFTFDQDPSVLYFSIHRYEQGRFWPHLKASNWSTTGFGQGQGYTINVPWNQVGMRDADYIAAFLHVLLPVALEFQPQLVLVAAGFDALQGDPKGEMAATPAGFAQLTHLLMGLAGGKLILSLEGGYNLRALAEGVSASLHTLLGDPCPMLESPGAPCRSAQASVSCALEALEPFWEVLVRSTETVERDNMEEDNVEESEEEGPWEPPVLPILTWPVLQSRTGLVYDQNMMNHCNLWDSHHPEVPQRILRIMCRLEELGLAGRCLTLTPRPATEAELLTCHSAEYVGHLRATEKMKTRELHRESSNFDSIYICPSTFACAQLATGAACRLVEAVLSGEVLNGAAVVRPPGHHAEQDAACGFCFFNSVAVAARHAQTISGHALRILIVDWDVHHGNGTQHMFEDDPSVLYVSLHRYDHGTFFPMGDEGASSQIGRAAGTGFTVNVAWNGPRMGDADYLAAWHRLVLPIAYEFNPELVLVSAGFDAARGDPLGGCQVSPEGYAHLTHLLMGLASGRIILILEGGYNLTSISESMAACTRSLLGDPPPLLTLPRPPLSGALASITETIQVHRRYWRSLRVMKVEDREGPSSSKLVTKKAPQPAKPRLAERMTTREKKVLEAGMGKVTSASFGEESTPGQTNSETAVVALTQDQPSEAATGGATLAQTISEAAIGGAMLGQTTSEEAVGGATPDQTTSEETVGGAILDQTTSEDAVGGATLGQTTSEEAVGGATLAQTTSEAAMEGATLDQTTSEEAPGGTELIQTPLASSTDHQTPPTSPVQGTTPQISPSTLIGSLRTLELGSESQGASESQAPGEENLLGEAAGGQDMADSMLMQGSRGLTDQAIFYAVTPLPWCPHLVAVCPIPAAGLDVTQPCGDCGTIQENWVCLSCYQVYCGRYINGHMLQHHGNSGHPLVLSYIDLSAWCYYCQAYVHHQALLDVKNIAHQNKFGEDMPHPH

T1: GST-tagged Mdp3 full-length (UniProt Q8IWC1)
T1 sequence: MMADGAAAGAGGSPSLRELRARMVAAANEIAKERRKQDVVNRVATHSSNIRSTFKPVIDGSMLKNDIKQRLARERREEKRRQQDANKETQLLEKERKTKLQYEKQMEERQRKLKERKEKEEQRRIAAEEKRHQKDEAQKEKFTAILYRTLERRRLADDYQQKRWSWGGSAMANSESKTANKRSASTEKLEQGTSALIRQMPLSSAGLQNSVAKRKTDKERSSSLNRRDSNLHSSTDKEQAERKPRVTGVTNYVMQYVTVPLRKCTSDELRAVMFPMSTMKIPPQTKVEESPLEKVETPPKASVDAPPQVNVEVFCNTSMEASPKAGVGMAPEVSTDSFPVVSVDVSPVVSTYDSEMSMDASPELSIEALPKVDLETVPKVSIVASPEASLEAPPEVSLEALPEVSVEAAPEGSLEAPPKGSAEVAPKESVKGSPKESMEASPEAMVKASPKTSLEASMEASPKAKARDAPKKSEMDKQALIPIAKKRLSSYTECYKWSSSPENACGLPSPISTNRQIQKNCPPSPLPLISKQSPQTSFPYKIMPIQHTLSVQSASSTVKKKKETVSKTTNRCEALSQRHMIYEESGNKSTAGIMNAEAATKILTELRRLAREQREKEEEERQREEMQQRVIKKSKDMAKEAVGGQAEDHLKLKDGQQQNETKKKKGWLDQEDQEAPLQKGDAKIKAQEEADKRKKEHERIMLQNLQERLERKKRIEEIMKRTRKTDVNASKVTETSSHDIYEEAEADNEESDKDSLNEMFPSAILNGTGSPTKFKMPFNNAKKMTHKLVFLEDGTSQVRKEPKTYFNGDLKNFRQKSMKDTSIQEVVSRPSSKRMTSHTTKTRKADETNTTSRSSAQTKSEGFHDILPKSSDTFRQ


Tests used:
[1] = molecular target: T1, GST-tagged Mdp3 full-length; assay: pull-down; HeLa cells transfected with GST or GST-Mdp3 fusion proteins; GST-pulldown from cell lysates on glutathione beads; immunoblot with anti-HDAC6
[2] = molecular target: GFP-HDAC6 (histone deacetylase 6) (UniProt Q9UBN7); assay: co-IP; HeLa cells transfected with GFP or GFP-HDAC6; anti-GFP immunoprecipitation; immunoblot with anti-Mdp3

Row | binding [1] | binding [2] | Molecule
1 | binds |  | HDAC6 (histone deacetylase 6), endogenous (from UniProt Q9UBN7 1-1215) (enzyme)
2 |  | binds | Mdp3 (MAP7 domain-containing protein 3), endogenous (protein, UniProt Q8IWC1 1-876) MMADGAAAGAGGSPSLRELRARMVAAANEIAKERRKQDVVNRVATHSSNIRSTFKPVIDGSMLKNDIKQRLARERREEKRRQQDANKETQLLEKERKTKLQYEKQMEERQRKLKERKEKEEQRRIAAEEKRHQKDEAQKEKFTAILYRTLERRRLADDYQQKRWSWGGSAMANSESKTANKRSASTEKLEQGTSALIRQMPLSSAGLQNSVAKRKTDKERSSSLNRRDSNLHSSTDKEQAERKPRVTGVTNYVMQYVTVPLRKCTSDELRAVMFPMSTMKIPPQTKVEESPLEKVETPPKASVDAPPQVNVEVFCNTSMEASPKAGVGMAPEVSTDSFPVVSVDVSPVVSTYDSEMSMDASPELSIEALPKVDLETVPKVSIVASPEASLEAPPEVSLEALPEVSVEAAPEGSLEAPPKGSAEVAPKESVKGSPKESMEASPEAMVKASPKTSLEASMEASPKAKARDAPKKSEMDKQALIPIAKKRLSSYTECYKWSSSPENACGLPSPISTNRQIQKNCPPSPLPLISKQSPQTSFPYKIMPIQHTLSVQSASSTVKKKKETVSKTTNRCEALSQRHMIYEESGNKSTAGIMNAEAATKILTELRRLAREQREKEEEERQREEMQQRVIKKSKDMAKEAVGGQAEDHLKLKDGQQQNETKKKKGWLDQEDQEAPLQKGDAKIKAQEEADKRKKEHERIMLQNLQERLERKKRIEEIMKRTRKTDVNASKVTETSSHDIYEEAEADNEESDKDSLNEMFPSAILNGTGSPTKFKMPFNNAKKMTHKLVFLEDGTSQVRKEPKTYFNGDLKNFRQKSMKDTSIQEVVSRPSSKRMTSHTTKTRKADETNTTSRSSAQTKSEGFHDILPKSSDTFRQ
